Results are given in words; binding and its absence hold for the method and conditions named. Binding seen in cells or lysates may run through a third protein. Some entries that bind do so weakly or less than the wild type.
Biological target: Interferon-stimulated gene 15 (ISG15) (human) (UniProt P05161)
Test: co-IP; 4 ug anti-ISG15 antibody or anti-IgG antibody added to cell lysates, 12 h at 4 C; precipitate resolved by SDS-PAGE and probed with anti-PD-L1 antibody

By UniProt entry, the sequences of proteins in these tests, tags left out. Residues count along the entry.
UniProt P05161, residues 1-157: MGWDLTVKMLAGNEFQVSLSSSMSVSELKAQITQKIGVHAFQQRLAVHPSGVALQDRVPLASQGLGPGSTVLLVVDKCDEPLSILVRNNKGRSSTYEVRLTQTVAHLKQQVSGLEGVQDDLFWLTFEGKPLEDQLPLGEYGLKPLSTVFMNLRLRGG
UniProt Q9NZQ7, residues 19-290: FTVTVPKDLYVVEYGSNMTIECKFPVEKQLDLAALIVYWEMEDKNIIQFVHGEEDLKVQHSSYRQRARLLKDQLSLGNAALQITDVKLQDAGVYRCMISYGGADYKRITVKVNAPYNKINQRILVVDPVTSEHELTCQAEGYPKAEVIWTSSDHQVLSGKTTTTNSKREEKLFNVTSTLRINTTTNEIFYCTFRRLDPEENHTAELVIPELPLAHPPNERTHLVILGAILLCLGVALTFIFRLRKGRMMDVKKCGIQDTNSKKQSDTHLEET

Programmed cell death-ligand 1 (PD-L1) (from UniProt Q9NZQ7 19-290)
binding: binds

From publication PMC10204161
